Results reported in patent US20120149708A1, “MODULATORS OF VIRAL TRANSCRIPTION, AND METHODS AND COMPOSITIONS THEREWITH” (George Mason University, priority 2010, published 2012).
Some of these results come from one statement about several compounds together.

Experiments:
[1] = test system: OM10.1 cells (HIV-1 infected); assay: Cell viability by trypan blue exclusion, 48 hours; format: cell-based; settings: 50 nM
Description: (§1) In brief, the inhibition studies were carried out as follows. HIV-1 infected cells ACH2, J1.1, OM10.1, U1 and uninfected CEM, Jurkat T-cells, and U937 were cultured in media. The appropriate inhibitor was added at a concentration of 10 μM. Cells were treated for 48 hours and cell viability was determined using trypan blue exclusion method. Results of such a screen for 19 inhibitors is shown in Table 1 where percent dead cells are indicated each drug tested.
(§2) Again HIV-1 infected and uninfected cells were treated with eighteen Formula I compounds at a drug concentration of 50 nm. Forty-eight hours after treatment, cytotoxicity was determined by trypan blue dye exclusion. Percent inhibition was calculated after obtaining the cell density for each well of the tissue culture plate at the end of 48 hrs.

[2] = test system: Jurkat T-cells (uninfected); assay: Cell viability by trypan blue exclusion, 48 hours; format: cell-based; settings: 50 nM
Description: TZM-bl cell lines were grown in Dulbecco's modified Eagle's medium supplemented with fetal bovine serum (FBS) (10%, v/v), 2 mM L-glutamine, and antibiotics (penicillin 100 U/ml, streptomycin […]) (cDMEM). HCT116 WT and HCT116 Dicer−/−cell lines were grown in McCoy's medium supplemented with FBS (10%, v/v), 2mM L-glutamine, and antibiotics (penicillin 100 U/ml, streptomycin […]). CEM, ACH2, Jurkat and U937 cells were grown in RPMI 1640 supplemented with FBS, L-glutamine, and antibiotics (penicillin 100 U/ml, streptomycin […]). All cell lines were maintained at 37° C. in 5% (v/v) CO2. […]
as §1, with “Results of such a screen for 19 inhibitors is shown in Table 1 where percent dead cells are indicated each drug tested.” left out
as §2

## CC[C@H](CO)Nc1nc(NCc2ccc(-c3ccccn3)cc2)n2ncc(C(C)C)c2n1 [MRT3-028, R-2-(8-isopropyl-4-(4-(pyridine-2-yl)benzylamino)pyrazolo[1,5-α]-1,3,5-triazine-2-ylamino)butan-1-ol]
[1]
  Inhibition Percentage OM10.1: +++ +++ (~75%)
[2]
  Inhibition Percentage Jurkat: ++ ++ (~50%)
